Test results published in PubChem BioAssay AID1671190 (National Center for Advancing Translational Sciences (NCATS), 2021).
Where “and” joins values, the source holds several entries; their conditions need not be identical. Identical values can stand only once. The campaign covered roughly 580,000 compounds. About 6,100 (1.1%) were called active. The inconclusive results got no clear call from the source; some entries with a clear call stand among them for comparison. Calls come from the whole dose curve; as a rule, active = well fitted inhibition curve with a large enough effect; inconclusive = small, poorly fitted or top-dose-only effect, or another doubt; inactive = no such curve, though single readings can be large or run the other way. Where the call is inconclusive, the potency comes from a doubtful curve fit.

Protein sequences, listed by entry. Tags and fused reporters are not part of them.
UniProt P18054, whole entry, looked up: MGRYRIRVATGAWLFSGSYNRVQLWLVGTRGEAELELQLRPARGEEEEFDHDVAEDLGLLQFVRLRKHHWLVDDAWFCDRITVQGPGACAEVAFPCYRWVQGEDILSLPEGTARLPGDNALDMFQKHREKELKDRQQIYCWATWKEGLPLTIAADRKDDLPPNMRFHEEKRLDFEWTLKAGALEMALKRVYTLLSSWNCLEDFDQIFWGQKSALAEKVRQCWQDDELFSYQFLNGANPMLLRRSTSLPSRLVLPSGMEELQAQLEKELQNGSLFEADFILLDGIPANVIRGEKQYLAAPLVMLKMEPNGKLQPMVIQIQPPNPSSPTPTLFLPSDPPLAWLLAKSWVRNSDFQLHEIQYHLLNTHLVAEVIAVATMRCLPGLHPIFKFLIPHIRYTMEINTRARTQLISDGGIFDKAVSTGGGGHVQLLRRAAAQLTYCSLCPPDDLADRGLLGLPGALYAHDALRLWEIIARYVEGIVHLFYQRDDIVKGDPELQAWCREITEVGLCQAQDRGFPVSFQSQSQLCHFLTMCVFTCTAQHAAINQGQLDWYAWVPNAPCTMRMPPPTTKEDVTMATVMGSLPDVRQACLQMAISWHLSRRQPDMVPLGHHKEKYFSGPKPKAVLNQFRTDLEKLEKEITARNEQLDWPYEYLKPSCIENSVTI

molecular target: Polyunsaturated fatty acid lipoxygenase ALOX12 (Homo sapiens) (UniProt P18054); experiment: Primary qHTS assay for inhibitors of human arachidonate 12S-lipoxygenase (ALOX12): Round 2; details: purified 12hLO, xylenol orange hydroperoxide absorbance; series mostly up to 108 µM
Outline: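 Hydroperoxide product was detected by ferrous iron/xylenol orange as the 573 to 405 nm absorbance ratio. Arachidonic acid at 40 uM (final) was turned over for 30 min at room temperature by 150 nM human 12hLO, pH 7.0 Hepes buffer, after 15 min compound preincubation.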
Potency is the fitted concentration of half-maximal effect.

| Compound | Potency |
| --- | --- |
| COc1ccc(Br)cc1[C@@H]1Nc2ccc(C(=O)O)cc2[C@@H]2C=CC[C@@H]21 | inconclusive: 79.4 µM [inhibitor, partial curve, poor fit] |
| CCOC(=O)c1cccc(NC(=O)c2oc3c(c2C)-c2nn(CC)cc2CC3)c1 | inconclusive: 50.1 µM [inhibitor, partial curve, poor fit] |
| O=c1cc(CN2CCN(c3ccccc3O)CC2)c2cc(Cl)c(O)cc2o1 | inconclusive: 63.1 µM [inhibitor, partial curve, poor fit] |
| CC1(Cc2ccc(F)c(Cl)c2)C(=O)Nc2c(Cl)cccc21 (stereo not drawn) | inconclusive: 89.1 µM [inhibitor, single point] |
| Cc1ccc(CNC(=O)Cc2csc3ccccc23)cc1 | inconclusive: 89.1 µM [inhibitor, partial curve, poor fit] |
| COC(=O)c1cccnc1NC(=S)NC(C)C | inconclusive: 31.6 µM [inhibitor, full curve, poor fit] |
| O=C(Nc1c(Cl)cc(Cl)cc1-c1nc2ccccc2s1)c1ccc(Br)o1 | inconclusive: 5.01 µM [inhibitor, full curve, poor fit] |
| O=C(COC(=O)c1c2c(nc3ccccc13)/C(=C\c1ccco1)CC2)NC1CCCC1 | active: 7.08 µM |
| COc1ccc(C)cc1NC(=O)Nc1cccc(OCc2cc(=O)n3ccc(C)cc3n2)c1 | inactive |
| COc1ccc(-c2nc3c(c4nnc(SC(C)C(=O)Nc5ccc(C)cc5)n24)COC(C)(C)C3)cc1 (stereo not drawn) | inactive |
| CCCCc1c(-c2ccc(OC)cc2)ncn1CCc1ccccc1OC | inconclusive: 50.1 µM [inhibitor, partial curve, poor fit] |
| CCOC(=O)c1ccc(-n2c(CCC(=O)O)ccc2-c2ccccc2)cc1 | inconclusive: 112 µM [inhibitor, partial curve, poor fit] |
| CC(C)NC[C@H](O)c1ccc(O)c(O)c1 | inconclusive: 6.31 µM [inhibitor, full curve, poor fit] and inconclusive: 22.4 µM [inhibitor, partial curve] |
| CCc1cccc(C)c1NC(=O)COC(=O)Cc1ccccc1 | inconclusive: 39.8 µM [inhibitor, partial curve] |
| CCCCOC(=O)Cn1c2ccc(OC)cc2c2nc3ccccc3nc21 | inconclusive: 1 µM [inhibitor, full curve, poor fit] |
| CC(=O)N1CCN(c2ccc(NCc3ccc(Br)o3)cc2)CC1 | inconclusive: 31.6 µM [inhibitor, partial curve] |
| CN(C)c1ncc2nc(CCc3ccccc3)c(=O)n(CCC#N)c2n1 | inconclusive: 50.1 µM [inhibitor, partial curve, poor fit] |
| O=C(c1ccc(Cl)cc1)N1CCC(N2CCCC2)CC1 | inconclusive: 56.2 µM [inhibitor, partial curve, poor fit] |
| COc1cccc(C(=O)N2c3ncnn3C3(CCCCC3)[C@@H]3CCCC[C@@H]32)c1 | inconclusive: 1.12 µM [inhibitor, partial curve, poor fit] |
| CCc1ccc(/C=N/NC(=O)c2cc(-c3ccccc3OC)nc3ccccc23)s1 | inactive |
| Cc1cccc(C)c1C(OCCN(C)C)C1CCCCC1 (stereo not drawn) | inconclusive: 15.8 µM [inhibitor, full curve, poor fit] |

| Compound | Potency |
| --- | --- |
| O=C(Nc1ccc(Oc2ccccc2)cc1)c1csc([C@@H]2O[C@H](CO)[C@H](O)[C@H](O)[C@H]2O)n1 | inactive |
| O=C(NCc1ccc(F)cc1)C1CCN(S(=O)(=O)c2cccc3nonc23)CC1 | inactive |
| O=C(NC1CCCCC1)N1CCC(OC2CCN(Cc3ccccc3)CC2)CC1 | inactive |
| CC(=O)Nc1sc2c(c1CN1CCN(c3ccc(F)cc3)CC1)CCCC2 | inconclusive: 11.2 µM [inhibitor, partial curve, poor fit] |
| Cc1ccc[n+](CC(=O)Nc2ccc(N(C)C)cc2)c1 | inconclusive: 35.5 µM [inhibitor, single point] |
| O=C(O)c1cc(N(Cc2ccccc2O)Cc2ccccc2O)ccc1O | inconclusive: 35.5 µM [inhibitor, partial curve, poor fit] |
| COc1ccc(CNc2cc(-c3ccccc3Cl)ncn2)c(OC)c1 | inconclusive: 6.31 µM [inhibitor, full curve, poor fit] |
| COc1ccc(S(=O)(=O)NNC(=O)c2csc(-n3nc(C)cc3C(F)(F)F)n2)cc1 | inconclusive: 79.4 µM [inhibitor, partial curve, poor fit] |
| CC(C)S(=O)(=O)C1=NSC2=NC(=O)/C(=C\c3ccc(OC(=O)c4ccco4)cc3)C(=N)N21 | inconclusive: 50.1 µM [inhibitor, partial curve, poor fit] |
| CCC(C)c1ccc(NC(=S)NCCn2cc(Cl)cn2)cc1 (stereo not drawn) | active: 35.5 µM |
| CC(C)NC(=O)c1nccnc1C(=O)O | inconclusive: 14.1 µM [inhibitor, full curve, poor fit] |
| CC(Sc1nnc(C2CC2)n1C1CC1)C(=O)Nc1ccnn1C(C)C (stereo not drawn) | inactive |
| CSCC[C@H](NC(=O)N1CCn2c1nc1ccccc12)C(=O)NC1CC1 | inactive |
| O=C(NC(=S)Nc1ccc(N2CCOCC2)cc1)c1ccc2c(c1)OCCO2 | inconclusive: 44.7 µM [inhibitor, partial curve] |
| CCN(CC)c1nc2ccccc2nc1C(C#N)C(=O)NCCc1ccccc1 (stereo not drawn) | inactive |
| CN1NC(c2ccccc2)NN(C)C1=O | inconclusive: 50.1 µM [inhibitor, partial curve, poor fit] |
| OCCCCCNc1ncnc2ccccc12 | inactive |
| CCNc1nc(-c2ccc(S(=O)(=O)N3CCCC3)cc2)cs1 | inconclusive: 35.5 µM [inhibitor, partial curve, poor fit] |
| Cc1nn(CCC(N)=S)c2nc(-c3cccs3)cc(C(F)(F)F)c12 | inconclusive: 50.1 µM [inhibitor, partial curve, poor fit] |
| CCCCN(CC)c1ccc(NS(=O)(=O)c2ccc(Br)s2)cc1C(=O)O | inconclusive: 22.4 µM [inhibitor, partial curve] |
| COc1ccccc1Cc1c(-c2ccc(F)cc2)nc2c(C)cc(Br)cn12 | inconclusive: 35.5 µM [inhibitor, partial curve] |

| Compound | Potency |
| --- | --- |
| O=C(/C(=C/c1ccccc1)n1cncn1)c1ccc(Cl)cc1Cl | inconclusive: 89.1 µM [inhibitor, partial curve, poor fit] |
| O=C(O)c1cc(N/N=C/c2c(O)ccc3ccccc23)ccc1Cl | inconclusive: 35.5 µM [inhibitor, partial curve, poor fit] |
| CCOc1ccc(CCNC(=O)CCCc2nnc3n(CC)c(=O)c4sccc4n23)cc1 | inactive |
| Cc1cc(C(=O)CCC(=O)Nc2ncccc2C)c(C)s1 | inconclusive: 56.2 µM [inhibitor, partial curve, poor fit] |
| CCOc1ccc(C2C(C#N)=C(N)Oc3cc(C)n(Cc4cccnc4)c(=O)c32)cc1OCC (stereo not drawn) | inconclusive: 112 µM [inhibitor, single point] |
| Cc1[nH]c2ccccc2c1/C=N/c1sc2c(c1C#N)CCC(C)C2 (stereo not drawn) | active: 22.4 µM |
| O=C(O)c1c(-c2ccccc2)oc2ccc(OCc3c(F)cccc3Cl)cc12 | inconclusive: 28.2 µM [inhibitor, partial curve, poor fit] |
| CCCC(=O)NC(=S)Nc1cccc(Cl)c1N1CCCCC1 | inconclusive: 31.6 µM [inhibitor, partial curve, poor fit] |
| COCCNc1nc(NCc2ccc(C)cc2C)c2sccc2n1 | inconclusive: 39.8 µM [inhibitor, partial curve, poor fit] |
| Clc1ccc(CNc2nc(CN3CCOCC3)nc3scc(-c4ccccc4)c23)cc1 | inactive |
| COc1cccc(OC)c1C(=O)C1CC(=O)Nc2c1c(C)nn2-c1cc(C)cc(C)c1 (stereo not drawn) | inactive |
| O=C(Cc1ccc(NC(=O)C2CCCN(C(=O)C3CCC3)C2)cc1)Nc1cccc(C(=O)N2CCCCC2)c1 (stereo not drawn) | inconclusive: 31.6 µM [inhibitor, single point] |
| Cc1ccc(C(=O)N2CCN(c3ccccc3F)CC2)cc1S(=O)(=O)N1CCOCC1 | inconclusive: 126 µM [inhibitor, partial curve, poor fit] |
| Cc1ccc(Cl)cc1NC(=O)CCn1cnc2c1c(=O)n(C)c(=O)n2C | inactive |
| C/C=C\C/C=C/CCCCCCCCOC(C)=O | inconclusive: 79.4 µM [inhibitor, partial curve, poor fit] |
| O=C(O)/C=C/c1cc(Cl)ccc1Cl | inconclusive: 5.62 µM [inhibitor, full curve, poor fit] |
| C=CCN=C1NC(c2cccc(Cl)c2)C(C(=O)OC)=C(C)N1Cc1ccc(C(F)(F)F)cc1 (stereo not drawn) | inconclusive: 70.8 µM [inhibitor, partial curve, poor fit] |
| COc1ccccc1C(=O)NC1CCC(C)CC1 (stereo not drawn) | inconclusive: 0.0282 µM [inhibitor, full curve, poor fit] |
| Cc1nc(C)c(C(=O)C2=C(O)C(=O)N(CCN3CCOCC3)C2c2ccc(C(C)(C)C)cc2)s1 (stereo not drawn) | inconclusive: 3.98 µM [inhibitor, full curve, poor fit] |
| COc1ccc(NC(=O)c2cccn(CC=C(C)C)c2=O)cc1 | inactive |
| NC(=O)[C@@H]1CC2(CC(c3cccc(NC(=O)COc4ccc(Cl)cc4)c3)=NO2)CN1C(=O)c1ccccc1 (stereo partly drawn) | inconclusive: 20 µM [inhibitor, partial curve, poor fit] |
